# Laboratory results taken from the supplement of paper PMC8728848.
# The list shows a part of the results.
# B1: TAL6-4LysM (Trichoderma atroviride) (protein)
# chain: AADSIPSISPTGIITPTPTQSGMVSNCNKFYDVHSNDGCSAIASSQHVDLSSLYKWNPAIKTDCSGLQASVYVCIGILTTSMSTTSKLPTTTSKPSTTSKPPTGITTPTPTQSGMVKNCNKFYDVHSGDGCSAIASSQKVNLSSFYLWNPAVKTDCSGLQASVFVCIGTLTTSMSTTTSKLPTTTSKPSTTSKPPTGIITPTPTQNGMVKNCNKFYDVHSGDGCSAIASSQKVNLSSFYLWNPAVKTDCSGLQASVFVCVGTATTTTAAGITTPTPTQSGMVSGCNKFYDVHAGDGCSAIASSQKIALSSLYKWNPAVKTDCSGLQASVYICIGVGNAAAARVTGALEQKLISEEDLNSAVDHHHHHH
# Tests used:
# Assay in all cases: glycan array binding signal (z-score within array); higher = stronger binding
# Conditions in all cases: glycan notation: IUPAC condensed, linker removed
# [1] = biological target: Gal6S(b1-4)Glc6S
# Method in brief: (§1)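 Glycan array binding is given as a within-array Z-score, which can be read as non-binding when negative. The arrays, 3228 of them, came from the Consortium for Functional Glycomics database and were retained only where the protein sequence was available. Z-scores were averaged across arrays of the same protein sequence at different concentrations or buffers and across linkers.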
# [2] = biological target: Gal6S(b1-4)GlcNAc
# Method in brief: as §1
# [3] = biological target: Gal6S(b1-4)GlcNAc6S
# Method in brief: as §1
# [4] = biological target: GalNAc(a1-3)Gal
# Method in brief: as §1
# [5] = biological target: GalNAc(a1-3)GalNAc
# Method in brief: as §1
# [6] = biological target: GalNAc(a1-3)GalNAc(b1-3)Gal(a1-4)Gal(b1-4)Glc
# Method in brief: as §1
# [7] = biological target: GalNAc(a1-3)GalNAc(b1-3)Gal(a1-4)Gal(b1-4)GlcNAc
# Method in brief: as §1
# [8] = biological target: GalNAc(b1-3)Gal
# Method in brief: as §1
# [9] = biological target: GalNAc(b1-3)Gal(a1-4)Gal(b1-4)GlcNAc
# Method in brief: as §1
# [10] = biological target: GalNAc(b1-3)Gal(a1-4)Gal(b1-4)GlcNAc(b1-3)Gal(b1-4)Glc
# Method in brief: as §1
# [11] = biological target: GalNAc(b1-3)Gal(a1-6)Gal(b1-4)Glc
# Method in brief: as §1
# [12] = biological target: GalNAc(b1-3)GalNAc
# Method in brief: as §1
# [13] = biological target: GalNAc(b1-3)GlcNAc
# Method in brief: as §1
# [14] = biological target: GalNAc(b1-4)Gal(b1-4)Glc
# Method in brief: as §1
# [15] = biological target: GalNAc(b1-4)GlcNAc
# Method in brief: as §1
# [16] = biological target: GalNAc(b1-4)GlcNAc(b1-2)Man
# Method in brief: as §1
# [17] = biological target: GalNAc(b1-4)GlcNAc(b1-2)Man(a1-3)[GalNAc(b1-4)GlcNAc(b1-2)Man(a1-6)]Man(b1-4)GlcNAc(b1-4)GlcNAc
# Method in brief: as §1
# [18] = biological target: GalNAc(b1-4)GlcNAc(b1-3)GalNAc(b1-4)GlcNAc
# Method in brief: as §1
# [19] = biological target: GalNAc(b1-4)GlcNAc6S
# Method in brief: as §1
# [20] = biological target: GalNAc(b1-6)GalNAc
# Method in brief: as §1
# [21] = biological target: GalNAc3S(b1-4)GlcNAc
# Method in brief: as §1
# [22] = biological target: GalNAc3S(b1-4)GlcNAc3S
# Method in brief: as §1
# [23] = biological target: GalNAc3S(b1-4)[Fuc(a1-3)]GlcNAc
# Method in brief: as §1
# [24] = biological target: GalNAc4S6S(b1-4)GlcNAc
# Method in brief: as §1
# [25] = biological target: GalNAc6S(b1-4)GlcNAc
# Method in brief: as §1
# [26] = biological target: Glc(a1-4)Glc
# Method in brief: as §1
# [27] = biological target: Glc(a1-4)Glc(a1-4)Glc(a1-4)Glc
# Method in brief: as §1
# [28] = biological target: Glc(a1-6)Glc(a1-6)Glc
# Method in brief: as §1
# [29] = biological target: Glc(a1-6)Glc(a1-6)Glc(a1-6)Glc
# Method in brief: as §1
# [30] = biological target: Glc(b1-4)Glc
# Method in brief: as §1
# [31] = biological target: Glc(b1-6)Glc
# Method in brief: as §1
# [32] = biological target: GlcA(b1-3)Gal
# Method in brief: as §1
# [33] = biological target: GlcA(b1-3)GlcNAc
# Method in brief: as §1
# [34] = biological target: GlcA(b1-6)Gal
# Method in brief: as §1
# [35] = biological target: GlcA3S(b1-3)Gal(b1-4)GlcNAc(b1-2)Man
# Method in brief: as §1
# [36] = biological target: GlcA3S(b1-3)Gal(b1-4)GlcNAc(b1-3)Gal(b1-4)Glc
# Method in brief: as §1
# [37] = biological target: GlcNAc(a1-3)Gal(b1-4)GlcNAc
# Method in brief: as §1
binder,measurement,setting,value
B1,glycan array binding signal (z-score),[1],2.23
same,glycan array binding signal (z-score),[2],0.994
same,glycan array binding signal (z-score),[3],-0.398
same,glycan array binding signal (z-score),[4],0.613
same,glycan array binding signal (z-score),[5],0.657
same,glycan array binding signal (z-score),[6],0.084
same,glycan array binding signal (z-score),[7],0.071
same,glycan array binding signal (z-score),[8],-0.639
same,glycan array binding signal (z-score),[9],0.963
same,glycan array binding signal (z-score),[10],0.34
same,glycan array binding signal (z-score),[11],-0.436
same,glycan array binding signal (z-score),[12],1.31
same,glycan array binding signal (z-score),[13],-0.707
same,glycan array binding signal (z-score),[14],0.01
same,glycan array binding signal (z-score),[15],1.41
same,glycan array binding signal (z-score),[16],1.31
same,glycan array binding signal (z-score),[17],-0.647
same,glycan array binding signal (z-score),[18],-0.378
same,glycan array binding signal (z-score),[19],0.091
same,glycan array binding signal (z-score),[20],-1.1
same,glycan array binding signal (z-score),[21],-0.088
same,glycan array binding signal (z-score),[22],-1.07
same,glycan array binding signal (z-score),[23],-0.53
same,glycan array binding signal (z-score),[24],1.16
same,glycan array binding signal (z-score),[25],-0.544
same,glycan array binding signal (z-score),[26],-0.584
same,glycan array binding signal (z-score),[27],-0.205
same,glycan array binding signal (z-score),[28],0.264
same,glycan array binding signal (z-score),[29],-2.01
same,glycan array binding signal (z-score),[30],-1.29
same,glycan array binding signal (z-score),[31],-1.85
same,glycan array binding signal (z-score),[32],-0.253
same,glycan array binding signal (z-score),[33],-0.371
same,glycan array binding signal (z-score),[34],-0.73
same,glycan array binding signal (z-score),[35],-1.83
same,glycan array binding signal (z-score),[36],1.02
same,glycan array binding signal (z-score),[37],1.16

# An excerpt of these results, as tab-separated lines.
binder	measurement	setting	value
B1	glycan array binding signal (z-score)	[10]	0.34
same	glycan array binding signal (z-score)	[11]	-0.436
same	glycan array binding signal (z-score)	[12]	1.31
same	glycan array binding signal (z-score)	[13]	-0.707
same	glycan array binding signal (z-score)	[14]	0.01
same	glycan array binding signal (z-score)	[15]	1.41
same	glycan array binding signal (z-score)	[16]	1.31
